No constants are given. Whether binding was seen depends on the method and setting. In cells and extracts the contact can be indirect. These calls come from enrichment with a bait or labelling near it, and not all partners need be listed. A no says only that the protein was not detected with the bait.
Biological target: Tspan15 (human (endogenous in HEK-293T)), O95858
Test: affinity purification with mass spectrometry
Conditions: remark: other sources report otherwise

- binding: no binding
B1: beta-transducin repeat containing E3 ubiquitin protein ligase (BTRC), Q9Y297 1-605 (protein)
chain: MDPAEAVLQEKALKFMCSMPRSLWLGCSSLADSMPSLRCLYNPGTGALTAFQNSSEREDCNNGEPPRKIIPEKNSLRQTYNSCARLCLNQETVCLASTAMKTENCVAKTKLANGTSSMIVPKQRKLSASYEKEKELCVKYFEQWSESDQVEFVEHLISQMCHYQHGHINSYLKPMLQRDFITALPARGLDHIAENILSYLDAKSLCAAELVCKEWYRVTSDGMLWKKLIERMVRTDSLWRGLAERRGWGQYLFKNKPPDGNAPPNSFYRALYPKIIQDIETIESNWRCGRHSLQRIHCRSETSKGVYCLQYDDQKIVSGLRDNTIKIWDKNTLECKRILTGHTGSVLCLQYDERVIITGSSDSTVRVWDVNTGEMLNTLIHHCEAVLHLRFNNGMMVTCSKDRSIAVWDMASPTDITLRRVLVGHRAAVNVVDFDDKYIVSASGDRTIKVWNTSTCEFVRTLNGHKRGIACLQYRDRLVVSGSSDNTIRLWDIECGACLRVLEGHEELVRCIRFDNKRIVSGAYDGKIKVWDLVAALDPRAPAGTLCLRTLVEHSGRVFRLQFDEFQIVSSSHDDTILIWDFLNDPAAQAEPPRSPSRTYTYISR
